Values quoted from earlier work as cited in US20220372491A1, “TREATMENT OF RENAL CYSTIC DISEASE” (MONASH UNIVERSITY, priority 2019, published 2022).
At least one structure is not confirmed: it was looked up by name or label, or the drawing left a doubt.

System: ADPKD
Settings: human clinical trials; cited from earlier work

CO[C@H]1C[C@@H]2CC[C@@H](C)[C@@](O)(O2)C(=O)C(=O)N2CCCC[C@H]2C(=O)O[C@H]([C@H](C)C[C@@H]2CC[C@@H](O)[C@H](OC)C2)CC(=O)[C@H](C)/C=C(\C)[C@@H](O)[C@@H](OC)C(=O)[C@H](C)C[C@H](C)/C=C/C=C/C=C/1C [Rapamycin]
clinical benefit: failed to demonstrate any significant benefit
